This note sets out measurements from article PMC9237076.

Sequences of proteins named here, by UniProt entry; tags and fusion partners are left off.
UniProt P05549: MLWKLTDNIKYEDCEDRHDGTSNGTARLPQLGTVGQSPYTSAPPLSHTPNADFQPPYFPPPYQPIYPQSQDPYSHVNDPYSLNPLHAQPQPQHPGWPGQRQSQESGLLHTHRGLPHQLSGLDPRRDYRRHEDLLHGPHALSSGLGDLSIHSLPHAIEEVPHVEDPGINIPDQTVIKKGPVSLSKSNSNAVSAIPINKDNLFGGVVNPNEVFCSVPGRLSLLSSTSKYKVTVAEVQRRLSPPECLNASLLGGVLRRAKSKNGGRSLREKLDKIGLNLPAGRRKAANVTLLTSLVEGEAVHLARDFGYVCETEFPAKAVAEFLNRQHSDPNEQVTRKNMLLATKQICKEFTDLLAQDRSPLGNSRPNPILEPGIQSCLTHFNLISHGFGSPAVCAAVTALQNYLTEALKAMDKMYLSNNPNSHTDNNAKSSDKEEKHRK

Assay [1] has as its target T1, c-myc-tagged CIITA (major histocompatibility complex class II transactivator), in HEK293T cells (UniProt P33076).
T1 sequence: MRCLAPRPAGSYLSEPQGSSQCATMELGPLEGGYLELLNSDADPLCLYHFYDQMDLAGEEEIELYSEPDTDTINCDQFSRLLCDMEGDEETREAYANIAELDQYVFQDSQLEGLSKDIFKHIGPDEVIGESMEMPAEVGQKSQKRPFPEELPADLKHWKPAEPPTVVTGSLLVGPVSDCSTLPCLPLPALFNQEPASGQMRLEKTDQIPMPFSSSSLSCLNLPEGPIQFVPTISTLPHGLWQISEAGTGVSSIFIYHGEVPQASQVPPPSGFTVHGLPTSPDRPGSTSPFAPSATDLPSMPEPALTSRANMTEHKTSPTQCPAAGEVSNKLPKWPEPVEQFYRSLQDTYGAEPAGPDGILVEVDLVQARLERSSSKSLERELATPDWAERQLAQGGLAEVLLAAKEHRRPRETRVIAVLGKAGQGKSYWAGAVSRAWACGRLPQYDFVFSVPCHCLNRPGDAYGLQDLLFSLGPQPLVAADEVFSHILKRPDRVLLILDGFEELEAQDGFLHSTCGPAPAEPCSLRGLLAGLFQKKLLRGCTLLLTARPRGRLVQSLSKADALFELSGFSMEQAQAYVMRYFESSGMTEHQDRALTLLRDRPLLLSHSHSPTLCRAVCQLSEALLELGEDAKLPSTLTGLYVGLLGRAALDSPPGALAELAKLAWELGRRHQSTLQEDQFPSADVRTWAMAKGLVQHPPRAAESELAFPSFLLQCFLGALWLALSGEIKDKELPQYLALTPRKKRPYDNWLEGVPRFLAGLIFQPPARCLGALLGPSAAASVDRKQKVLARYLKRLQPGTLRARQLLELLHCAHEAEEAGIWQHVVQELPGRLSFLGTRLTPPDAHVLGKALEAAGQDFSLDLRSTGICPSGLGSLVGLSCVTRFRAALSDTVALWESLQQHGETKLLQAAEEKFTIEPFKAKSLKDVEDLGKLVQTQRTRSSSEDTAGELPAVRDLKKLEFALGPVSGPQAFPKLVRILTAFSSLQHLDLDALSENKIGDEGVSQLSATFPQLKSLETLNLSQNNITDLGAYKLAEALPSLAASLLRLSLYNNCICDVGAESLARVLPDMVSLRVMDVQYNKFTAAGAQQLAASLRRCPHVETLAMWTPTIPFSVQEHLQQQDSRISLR
The experiment in a line: pull-down; c-myc-CIITA from lysate of transfected HEK293T cells held on c-Myc beads, incubated with lysate of HEK293T cells transfected with AP2α; immunoblot. On the technique in general: A western blot detects proteins with antibodies after separation by electrophoresis.

In assay [2] the target is T2, c-myc-tagged CIITA (major histocompatibility complex class II transactivator), in osteocytes (UniProt P33076).
T2 sequence: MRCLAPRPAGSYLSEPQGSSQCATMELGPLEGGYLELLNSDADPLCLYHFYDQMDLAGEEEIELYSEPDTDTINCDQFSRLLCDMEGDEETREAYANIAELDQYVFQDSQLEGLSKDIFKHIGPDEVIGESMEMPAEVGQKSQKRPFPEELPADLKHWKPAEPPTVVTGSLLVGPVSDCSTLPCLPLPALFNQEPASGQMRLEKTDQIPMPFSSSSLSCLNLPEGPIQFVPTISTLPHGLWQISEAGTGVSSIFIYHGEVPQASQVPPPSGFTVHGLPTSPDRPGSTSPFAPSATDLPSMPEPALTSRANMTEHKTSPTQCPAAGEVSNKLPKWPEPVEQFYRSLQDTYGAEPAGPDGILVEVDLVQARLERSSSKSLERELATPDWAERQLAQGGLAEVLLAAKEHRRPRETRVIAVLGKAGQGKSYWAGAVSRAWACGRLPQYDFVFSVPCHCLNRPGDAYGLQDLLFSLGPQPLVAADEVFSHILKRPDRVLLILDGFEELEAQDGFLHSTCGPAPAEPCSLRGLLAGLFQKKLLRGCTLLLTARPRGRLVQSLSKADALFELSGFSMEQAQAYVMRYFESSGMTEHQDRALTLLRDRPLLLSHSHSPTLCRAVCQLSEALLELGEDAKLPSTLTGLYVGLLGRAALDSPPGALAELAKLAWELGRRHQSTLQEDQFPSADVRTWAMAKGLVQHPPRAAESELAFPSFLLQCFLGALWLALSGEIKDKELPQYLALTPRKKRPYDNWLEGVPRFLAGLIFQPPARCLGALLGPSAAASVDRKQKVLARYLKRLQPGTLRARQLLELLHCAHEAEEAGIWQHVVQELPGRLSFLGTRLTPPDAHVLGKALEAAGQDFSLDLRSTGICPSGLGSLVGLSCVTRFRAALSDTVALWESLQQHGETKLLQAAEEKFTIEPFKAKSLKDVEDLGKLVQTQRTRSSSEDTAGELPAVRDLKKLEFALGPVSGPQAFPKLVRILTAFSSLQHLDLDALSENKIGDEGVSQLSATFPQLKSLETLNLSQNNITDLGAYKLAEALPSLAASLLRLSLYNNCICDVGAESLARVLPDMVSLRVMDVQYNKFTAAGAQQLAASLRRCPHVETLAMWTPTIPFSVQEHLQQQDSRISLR
The experiment in a line: co-IP; osteocytes transfected with c-myc-CIITA plasmid; lysate immunoprecipitated, immunoblot.

The target of assay [3] is T3, phosphorylated STAT1 (mouse (endogenous in MLO-Y4 and MLO-A5)), P42225.
T3 chain: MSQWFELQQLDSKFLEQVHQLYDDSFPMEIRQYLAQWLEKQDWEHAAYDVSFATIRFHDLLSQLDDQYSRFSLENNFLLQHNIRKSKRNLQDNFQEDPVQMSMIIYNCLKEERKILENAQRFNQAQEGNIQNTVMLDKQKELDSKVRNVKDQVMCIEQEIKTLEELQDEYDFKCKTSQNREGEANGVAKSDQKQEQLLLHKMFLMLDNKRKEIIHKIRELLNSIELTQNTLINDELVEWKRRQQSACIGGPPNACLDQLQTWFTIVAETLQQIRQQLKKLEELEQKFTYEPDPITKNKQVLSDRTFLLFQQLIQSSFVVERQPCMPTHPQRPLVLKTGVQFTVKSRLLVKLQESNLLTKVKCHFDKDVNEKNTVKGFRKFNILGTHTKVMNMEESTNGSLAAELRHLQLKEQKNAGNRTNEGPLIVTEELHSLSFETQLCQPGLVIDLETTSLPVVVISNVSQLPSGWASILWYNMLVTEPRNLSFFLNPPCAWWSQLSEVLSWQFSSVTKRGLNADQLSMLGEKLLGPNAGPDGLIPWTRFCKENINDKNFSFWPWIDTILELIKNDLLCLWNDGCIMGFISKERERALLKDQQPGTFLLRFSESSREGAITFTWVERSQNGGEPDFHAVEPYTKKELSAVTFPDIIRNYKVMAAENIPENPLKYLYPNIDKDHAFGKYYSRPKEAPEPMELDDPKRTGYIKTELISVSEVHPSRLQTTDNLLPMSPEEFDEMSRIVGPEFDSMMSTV
The experiment in a line: co-IP; lysates of MLO-Y4 and MLO-A5 osteocytes cultured with 2DDR, immunoprecipitated with an anti-phosphorylated STAT1 antibody (agarose-immobilized, 4 °C overnight), blotted for IRF1. The following applies: remark: other sources report otherwise.

No constants are given. Whether binding was seen depends on the method and setting. Binding seen in cells or lysates may run through a third protein. Some results given as binding are weak or reduced against the parent protein; the word gives no strength. For part of these data: Tags and fused reporters may be left off the sequences shown.

For the molecule “AP2α expressed in HEK293T cells (from UniProt P05549 1-437)”, in assay [1], the binding entry was “binds”.

Consider “transcriptional factor AP2α, in osteocytes transfected with c-myc-CIITA (from UniProt P05549 1-437)”, for which the binding result in assay [2] is listed as “binds”.

B1: interferon regulatory factor 1, P15314 1-329 (protein)
chain: MPITRMRMRPWLEMQINSNQIPGLIWINKEEMIFQIPWKHAAKHGWDINKDACLFRSWAIHTGRYKAGEKEPDPKTWKANFRCAMNSLPDIEEVKDQSRNKGSSAVRVYRMLPPLTRNQRKERKSKSSRDTKSKTKRKLCGDVSPDTFSDGLSSSTLPDDHSSYTTQGYLGQDLDMERDITPALSPCVVSSSLSEWHMQMDIIPDSTTDLYNLQVSPMPSTSEAATDEDEEGKIAEDLMKLFEQSEWQPTHIDGKGYLLNEPGTQLSSVYGDFSCKEEPEIDSPRGDIGIGIQHVFTEMKNMDSIMWMDSLLGNSVRLPPSIQAIPCAP
modifications: here or on the partner: phosphotyrosine at 701 (as named for the antibody: Phospho-STAT1 (Tyr701))
Turning to B1, the binding entry in assay [3] is given as “binds”.
